Our source for the binding values is article PMC6667474.

Chains of the proteins cited; added tags and fusions are not shown.
UniProt Q86VI3: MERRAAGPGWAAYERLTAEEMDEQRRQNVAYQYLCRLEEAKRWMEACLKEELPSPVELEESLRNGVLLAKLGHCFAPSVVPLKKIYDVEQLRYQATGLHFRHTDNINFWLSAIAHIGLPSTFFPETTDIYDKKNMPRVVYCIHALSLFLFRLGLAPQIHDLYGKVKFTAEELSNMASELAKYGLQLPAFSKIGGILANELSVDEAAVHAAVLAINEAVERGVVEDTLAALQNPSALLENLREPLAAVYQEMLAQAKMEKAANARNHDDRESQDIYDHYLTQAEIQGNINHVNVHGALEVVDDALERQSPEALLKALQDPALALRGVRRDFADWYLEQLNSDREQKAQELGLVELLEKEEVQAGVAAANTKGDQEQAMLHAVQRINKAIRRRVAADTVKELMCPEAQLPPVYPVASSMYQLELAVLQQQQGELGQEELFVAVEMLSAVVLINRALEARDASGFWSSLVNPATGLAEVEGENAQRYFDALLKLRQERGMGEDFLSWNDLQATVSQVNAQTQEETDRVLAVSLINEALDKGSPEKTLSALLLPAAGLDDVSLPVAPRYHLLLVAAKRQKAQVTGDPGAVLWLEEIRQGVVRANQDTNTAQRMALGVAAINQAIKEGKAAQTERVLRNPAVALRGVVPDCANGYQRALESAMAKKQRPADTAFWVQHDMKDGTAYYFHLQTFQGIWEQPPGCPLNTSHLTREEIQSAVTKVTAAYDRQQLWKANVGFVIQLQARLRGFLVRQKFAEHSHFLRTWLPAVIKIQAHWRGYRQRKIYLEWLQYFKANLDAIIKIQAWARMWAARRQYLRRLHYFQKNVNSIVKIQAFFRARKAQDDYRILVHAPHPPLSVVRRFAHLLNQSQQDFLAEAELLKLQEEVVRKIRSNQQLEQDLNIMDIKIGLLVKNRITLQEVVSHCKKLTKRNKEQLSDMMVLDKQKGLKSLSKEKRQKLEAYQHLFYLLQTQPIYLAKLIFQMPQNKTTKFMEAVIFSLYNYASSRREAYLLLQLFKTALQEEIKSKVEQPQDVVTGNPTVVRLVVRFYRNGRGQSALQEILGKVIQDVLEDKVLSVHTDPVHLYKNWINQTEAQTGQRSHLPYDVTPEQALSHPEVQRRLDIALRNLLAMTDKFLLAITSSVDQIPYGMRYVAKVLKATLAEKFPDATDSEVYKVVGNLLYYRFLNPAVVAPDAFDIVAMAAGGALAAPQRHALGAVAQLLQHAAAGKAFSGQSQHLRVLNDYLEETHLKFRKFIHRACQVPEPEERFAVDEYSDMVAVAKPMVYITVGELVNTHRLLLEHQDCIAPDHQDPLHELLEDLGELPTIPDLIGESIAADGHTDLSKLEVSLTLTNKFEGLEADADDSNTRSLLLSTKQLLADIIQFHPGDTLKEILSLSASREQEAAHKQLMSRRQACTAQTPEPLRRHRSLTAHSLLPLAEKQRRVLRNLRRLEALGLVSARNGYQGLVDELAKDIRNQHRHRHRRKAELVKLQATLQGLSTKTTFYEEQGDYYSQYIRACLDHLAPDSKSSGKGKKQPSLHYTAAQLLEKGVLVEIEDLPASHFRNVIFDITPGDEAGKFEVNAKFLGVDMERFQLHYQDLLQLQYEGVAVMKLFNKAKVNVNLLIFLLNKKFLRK

No constants are given. Whether binding was seen depends on the method and setting. Binding seen in cells or lysates may run through a third protein.

Assay [1] deals with FLAG-tagged constitutively active (G12V) K-Ras (UniProt P01116). The assay is described as follows: co-IP; HEK293 cells transfected with FLAG-Ras G12V; anti-FLAG M2 magnetic beads 4 h at 4 C; lysis buffer 150 mM NaCl, 1% Triton X-100, 200 mM Tris-HCl pH 7.4; Western blot. In general terms: In western blotting, separated proteins are transferred to a membrane and probed.
Assay [2] has as its target GST-tagged constitutively active (G12V) K-Ras (UniProt P01116). Nature of the assay: pull-down; GST proteins on glutathione-Sepharose beads incubated 3 h at 4 C with lysate of HEK293 cells transfected with Myc-C-Raf alone, Myc-C-Raf and Myc-IQGAP1, or Myc-C-Raf and Myc-IQGAP3; lysis buffer (150 mM NaCl, 1% Triton X-100, 200 mM Tris-HCl pH 7.4) with 1 mM EGTA; Western blot; only the target purified.

As to “endogenous IQGAP3 (from UniProt Q86VI3 1-1631)”, the binding entry in assay [1] and in assay [2] was “no binding” in each case.
“endogenous IQGAP1 (from UniProt P46940 1-1657)”: the binding result in assay [1] and in assay [2] was “no binding” each time.
